# According to patent publication US20090247646A1, “USE OF RESVERATROL AND DERIVATIVES THEREOF FOR PROMOTING THE WELLNESS STATE IN MAMMALS” (priority 2006, published 2009):
# This continues a long series; more values of the same kind are listed elsewhere.
# Test system: gene expression in heart tissue
# Test: Genome-wide gene expression in heart tissue of old mice fed a resveratrol-supplemented diet (Affymetrix Mouse Genome 430 2.0 array)
# Type: in vivo
smiles,measurement,setting,value
"Oc1ccc(/C=C/c2cc(O)cc(O)c2)cc1 [resveratrol, 3,4′,5-Trihydroxy-trans-stilbene]",Effect of resveratrol on changeing gene expression from old to young profile,1429859_a_at ADP-ribosylation factor-like 2 binding protein,60-70%
same,Effect of resveratrol on changeing gene expression from old to young profile,1430332_a_at beta-glucuronidase,80-90%
same,Effect of resveratrol on changeing gene expression from old to young profile,1430421_a_at hypothetical protein MGC18837,90-100%
same,Effect of resveratrol on changeing gene expression from old to young profile,"1430519_a_at CCR4-NOT transcription complex, subunit 7",<60%
same,Effect of resveratrol on changeing gene expression from old to young profile,1430533_a_at catenin beta,80-90%
same,Effect of resveratrol on changeing gene expression from old to young profile,1430536_a_at Mus musculus transcribed sequence with strong similarity to protein prf: 2208314A (H. sapiens) 2208314A ERH gene [Homo sapiens] [BLAST],>100%
same,Effect of resveratrol on changeing gene expression from old to young profile,1430976_a_at mitochondrial ribosomal protein L9,80-90%
same,Effect of resveratrol on changeing gene expression from old to young profile,1430980_a_at eukaryotic translation initiation factor 4A1,>100%
same,Effect of resveratrol on changeing gene expression from old to young profile,1430999_a_at short coiled-coil protein,>100%
same,Effect of resveratrol on changeing gene expression from old to young profile,"1431012_a_at peroxisomal delta3, delta2-enoyl-Coenzyme A isomerase",90-100%
same,Effect of resveratrol on changeing gene expression from old to young profile,1431030_a_at ring finger protein 14,70-80%
same,Effect of resveratrol on changeing gene expression from old to young profile,1431255_at calreticulin 3,>100%
same,Effect of resveratrol on changeing gene expression from old to young profile,"1431345_a_at TATA box binding protein (Tbp)-associated factor, RNA polymerase I, B",70-80%
same,Effect of resveratrol on changeing gene expression from old to young profile,1431431_a_at nitrogen fixation gene 1 (S. cerevisiae),90-100%
same,Effect of resveratrol on changeing gene expression from old to young profile,1431507_a_at synaptojanin 2 binding protein,>100%
same,Effect of resveratrol on changeing gene expression from old to young profile,1431592_a_at SH3-domain kinase binding protein 1,70-80%
same,Effect of resveratrol on changeing gene expression from old to young profile,1431645_a_at guanosine diphosphate (GDP) dissociation inhibitor 3,<60%
same,Effect of resveratrol on changeing gene expression from old to young profile,1431746_a_at ubiquitin-activating enzyme E1C [BLAST],>100%
same,Effect of resveratrol on changeing gene expression from old to young profile,1431962_a_at Stam binding protein,>100%
same,Effect of resveratrol on changeing gene expression from old to young profile,1432016_a_at isocitrate dehydrogenase 3 (NAD+) alpha [BLAST],>100%
same,Effect of resveratrol on changeing gene expression from old to young profile,1432042_a_at smu-1 suppressor of mec-8 and unc-52 homolog (C. elegans),90-100%
same,Effect of resveratrol on changeing gene expression from old to young profile,1432211_a_at f-box only protein 9,60-70%
same,Effect of resveratrol on changeing gene expression from old to young profile,1432344_a_at amyloid beta (A4) precursor-like protein 2,<60%
same,Effect of resveratrol on changeing gene expression from old to young profile,"1432488_a_at splicing factor 3a, subunit 3, 60 kDa",<60%
same,Effect of resveratrol on changeing gene expression from old to young profile,"1433461_at splicing factor 3b, subunit 2",>100%
same,Effect of resveratrol on changeing gene expression from old to young profile,1433539_at COMM domain containing 3,90-100%
same,Effect of resveratrol on changeing gene expression from old to young profile,"1433576_at methionine adenosyltransferase II, alpha",60-70%
same,Effect of resveratrol on changeing gene expression from old to young profile,"1433751_at solute carrier family 39 (zinc transporter), member 10",80-90%
same,Effect of resveratrol on changeing gene expression from old to young profile,"1434008_at Mus musculus, clone IMAGE: 1282676, mRNA",<60%
same,Effect of resveratrol on changeing gene expression from old to young profile,1434044_at hypothetical protein C130032F08,90-100%
same,Effect of resveratrol on changeing gene expression from old to young profile,1434105_at EPM2A (laforin) interacting protein 1,60-70%
same,Effect of resveratrol on changeing gene expression from old to young profile,1434189_at stromal antigen 1,>100%
same,Effect of resveratrol on changeing gene expression from old to young profile,1434254_at hypothetical protein E430025L19,>100%
same,Effect of resveratrol on changeing gene expression from old to young profile,"1434268_at adenosine deaminase, RNA-specific",80-90%
same,Effect of resveratrol on changeing gene expression from old to young profile,1434278_at No description found,60-70%
same,Effect of resveratrol on changeing gene expression from old to young profile,1434302_at No description found,>100%
same,Effect of resveratrol on changeing gene expression from old to young profile,1434416_a_at small optic lobes homolog (Drosophila),>100%
same,Effect of resveratrol on changeing gene expression from old to young profile,1434516_at hypothetical protein 5730458D16,>100%
same,Effect of resveratrol on changeing gene expression from old to young profile,"1434537_at solute carrier organic anion transporter family, member 3a1",80-90%
same,Effect of resveratrol on changeing gene expression from old to young profile,1434548_at tumor differentially expressed 1,70-80%
same,Effect of resveratrol on changeing gene expression from old to young profile,1434560_at KIAA1037 protein,>100%
same,Effect of resveratrol on changeing gene expression from old to young profile,1434580_at ectonucleotide pyrophosphatase/phosphodiesterase 4,60-70%
same,Effect of resveratrol on changeing gene expression from old to young profile,1434652_at Cdc42 binding protein kinase beta,>100%
same,Effect of resveratrol on changeing gene expression from old to young profile,1434815_a_at expressed sequence AI874665,>100%
same,Effect of resveratrol on changeing gene expression from old to young profile,"1434834_at Nck, Ash and phospholipase C binding protein",>100%
same,Effect of resveratrol on changeing gene expression from old to young profile,"1434893_at ATPase, Na+/K+ transporting, alpha 2 polypeptide [BLAST]",>100%
same,Effect of resveratrol on changeing gene expression from old to young profile,1434924_at PHD finger protein 2,>100%
same,Effect of resveratrol on changeing gene expression from old to young profile,1434935_at expressed sequence C79663,70-80%
same,Effect of resveratrol on changeing gene expression from old to young profile,"1434937_at pam, highwire, rpm 1 [BLAST]",80-90%
same,Effect of resveratrol on changeing gene expression from old to young profile,"1435032_at golgi autoantigen, golgin subfamily b, macrogolgin 1",90-100%
same,Effect of resveratrol on changeing gene expression from old to young profile,1435129_at protein tyrosine phosphatase 4a2,70-80%
same,Effect of resveratrol on changeing gene expression from old to young profile,1435140_at insulin degrading enzyme,>100%
same,Effect of resveratrol on changeing gene expression from old to young profile,1435213_at NHL repeat containing 1,>100%
same,Effect of resveratrol on changeing gene expression from old to young profile,1435265_at Mus musculus transcribed sequence with strong similarity to protein sp: P00722 (E. coli) BGAL_ECOLI Beta-galactosidase (Lactase),90-100%
same,Effect of resveratrol on changeing gene expression from old to young profile,1435518_at RAS related protein 1b,80-90%
same,Effect of resveratrol on changeing gene expression from old to young profile,"1435626_a_at homocysteine-inducible, endoplasmic reticulum stress-inducible, ubiquitin-like domain member 1",>100%
same,Effect of resveratrol on changeing gene expression from old to young profile,"1435652_a_at guanine nucleotide binding protein, alpha inhibiting 2",>100%
same,Effect of resveratrol on changeing gene expression from old to young profile,1435679_at optineurin,>100%
same,Effect of resveratrol on changeing gene expression from old to young profile,1435730_at Mus musculus transcribed sequences,>100%
same,Effect of resveratrol on changeing gene expression from old to young profile,1435893_at very low density lipoprotein receptor,>100%
